Experimental data taken from article PMC10957929.
For at least one entry, the source does not settle the construct or the ends of the probe. At least one verdict rests on a figure or table, not on a statement of the authors. Where a protein sequence is shown, tags need not be part of it.

Target: T1, GST-DRG9Nip (Oryza sativa ssp. japonica cv. Nipponbare) (UniProt Q69P58)
T1 sequence (looked up, limits assumed): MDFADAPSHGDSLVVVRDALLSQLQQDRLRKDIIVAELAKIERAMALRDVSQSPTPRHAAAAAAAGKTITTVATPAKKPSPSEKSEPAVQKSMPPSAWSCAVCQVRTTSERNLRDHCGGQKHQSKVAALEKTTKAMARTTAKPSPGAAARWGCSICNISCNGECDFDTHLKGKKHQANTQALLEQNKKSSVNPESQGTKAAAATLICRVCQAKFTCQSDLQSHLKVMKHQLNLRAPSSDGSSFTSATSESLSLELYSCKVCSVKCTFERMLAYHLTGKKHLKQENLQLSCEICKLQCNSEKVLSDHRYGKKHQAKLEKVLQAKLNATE
Experiment: EMSA
Settings: 20 mM Hepes pH 7.5, 1 mM MgCl2, 10 mM ZnCl2, 5 mM DTT, 10% glycerol, 0.1% NP-40, room temperature, 1 h; 6% native PAGE, 0.5x TBE; recombinant protein; protein details: N-terminal GST (pGEX4t-1); label: 5'-FAM

## GGGCACUCUUCCGUGGUCUGGUGGAAUUCCGUCAGACAACGGGGGAGCGCUCCUUUU [T57A RNA]
  binding result: binds
